Laboratory results: PubChem BioAssay AID1159578 (Peter MacCallum Cancer Centre, 2015)

- Test: 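siRNA pools altering how lymphatic endothelial cells close a scratch wound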 (primary screen)
- Cells: human lymphatic endothelial cells
- Reagents: siRNA pool against human genes, 40 nM
- Timing: 48 h after transfection
- Read-out: 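Cells stained with dye and imaged after a scratch; covered wound area and nuclei counted, duplicates averaged, migration set against mock wells and turned into a robust z-score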
- Scale: migration robust z-score: higher = faster migration into the scratch; migration relative to mock: higher = more scratch area covered than mock; nuclei per well: higher = more cells in the well
- Active means: 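Pools averaging fewer than 3300 nuclei are never called; remaining pools count as changed when migration robust z lies outside -2 to 2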
- Calls: active = migration changed; inactive = no migration change, or too few cells
Shown is one part, drawn at random, of about 18,000 reagents. About 1,030 of all reagents (5.7%) were called active. 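Inactive calls also include pools with fewer than 3300 nuclei, whose migration was not assessed.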 Raw values vary from plate to plate and are shown uncorrected. Reagent sequences are not shown.

target gene | PubChem SID | migration robust z-score | migration class with cell-count check | migration relative to mock | nuclei per well, duplicate mean | Outcome
CCS (GeneID 9973) | SID255354711 | -2.64 | migration z below -2; enough cells | 0.3 | 3561 | active
OR2B11 (GeneID 127623) | SID255362763 | -2.05 | migration z below -2; enough cells | 0.35 | 5022 | active
NUMA1 (GeneID 4926) | SID255351323 | -2.59 | under 3300 nuclei; migration not judged | 0.22 | 2360 | inactive
HMGCL (GeneID 3155) | SID255350224 | 0.83 | migration z between -2 and 2; enough cells | 0.97 | 5867 | inactive
OR10K2 (GeneID 391107) | SID255365677 | -1.66 | migration z between -2 and 2; enough cells | 0.44 | 4492 | inactive
DCANP1 (GeneID 140947) | SID255363164 | -0.61 | migration z between -2 and 2; enough cells | 0.73 | 5002 | inactive
AVPI1 (GeneID 60370) | SID255359702 | -0.41 | migration z between -2 and 2; enough cells | 0.78 | 5782 | inactive
HSF2 (GeneID 3298) | SID255350326 | 0.72 | migration z between -2 and 2; enough cells | 0.94 | 5187 | inactive
CRYZL1 (GeneID 9946) | SID255354689 | 0.88 | migration z between -2 and 2; enough cells | 0.98 | 6308 | inactive
TAF1D (GeneID 79101) | SID255360220 | 0.05 | migration z between -2 and 2; enough cells | 0.9 | 6565 | inactive
DNAJC15 (GeneID 29103) | SID255357142 | 0.24 | migration z between -2 and 2; enough cells | 0.95 | 5234 | inactive
KIF12 (GeneID 113220) | SID255362182 | -2.7 | under 3300 nuclei; migration not judged | 0.28 | 3276 | inactive
CPNE8 (GeneID 144402) | SID255363221 | 0.44 | migration z between -2 and 2; enough cells | 1 | 5799 | inactive
SPATA16 (GeneID 83893) | SID255361125 | 0.4 | migration z between -2 and 2; enough cells | 0.98 | 5570 | inactive
BRD1 (GeneID 23774) | SID255356427 | -0.86 | migration z between -2 and 2; enough cells | 0.66 | 6139 | inactive
HNRNPR (GeneID 10236) | SID255354922 | 1.06 | migration z between -2 and 2; enough cells | 1.16 | 6864 | inactive
CMTM6 (GeneID 54918) | SID255358267 | -0.85 | migration z between -2 and 2; enough cells | 0.67 | 7004 | inactive
HSPBP1 (GeneID 23640) | SID255356385 | 0.06 | migration z between -2 and 2; enough cells | 0.9 | 7235 | inactive
HTR3A (GeneID 3359) | SID255350361 | -1.06 | migration z between -2 and 2; enough cells | 0.6 | 4111 | inactive
ZSCAN31 (GeneID 64288) | SID255359890 | 0.46 | migration z between -2 and 2; enough cells | 1 | 6699 | inactive
NFYC (GeneID 4802) | SID255351236 | -1.72 | migration z between -2 and 2; enough cells | 0.44 | 6283 | inactive
CNOT2 (GeneID 4848) | SID255351268 | -0.27 | migration z between -2 and 2; enough cells | 0.82 | 5608 | inactive
TMED8 (GeneID 283578) | SID255364689 | -0.06 | migration z between -2 and 2; enough cells | 0.86 | 4930 | inactive
GPR63 (GeneID 81491) | SID255360872 | 0.24 | migration z between -2 and 2; enough cells | 0.85 | 5089 | inactive
SASH3 (GeneID 54440) | SID255358009 | -0.57 | migration z between -2 and 2; enough cells | 0.74 | 5476 | inactive

Next part; the last 6 above are carried over.
target gene | PubChem SID | migration robust z-score | migration class with cell-count check | migration relative to mock | nuclei per well, duplicate mean | Outcome
ZSCAN31 (GeneID 64288) | SID255359890 | 0.46 | migration z between -2 and 2; enough cells | 1 | 6699 | inactive
NFYC (GeneID 4802) | SID255351236 | -1.72 | migration z between -2 and 2; enough cells | 0.44 | 6283 | inactive
CNOT2 (GeneID 4848) | SID255351268 | -0.27 | migration z between -2 and 2; enough cells | 0.82 | 5608 | inactive
TMED8 (GeneID 283578) | SID255364689 | -0.06 | migration z between -2 and 2; enough cells | 0.86 | 4930 | inactive
GPR63 (GeneID 81491) | SID255360872 | 0.24 | migration z between -2 and 2; enough cells | 0.85 | 5089 | inactive
SASH3 (GeneID 54440) | SID255358009 | -0.57 | migration z between -2 and 2; enough cells | 0.74 | 5476 | inactive
FERMT1 (GeneID 55612) | SID255358718 | -0.56 | migration z between -2 and 2; enough cells | 0.74 | 4148 | inactive
ITIH6 (GeneID 347365) | SID255365220 | 0.64 | migration z between -2 and 2; enough cells | 1.05 | 6266 | inactive
TOP2B (GeneID 7155) | SID255352932 | 1.06 | migration z between -2 and 2; enough cells | 1.01 | 6361 | inactive
PIGU (GeneID 128869) | SID255362821 | 0.6 | migration z between -2 and 2; enough cells | 0.92 | 6092 | inactive
CTAGE1 (GeneID 64693) | SID255359958 | 2.38 | migration z above 2; enough cells | 1.5 | 6608 | active
KCTD11 (GeneID 147040) | SID255363315 | -0.78 | migration z between -2 and 2; enough cells | 0.68 | 4611 | inactive
GPR142 (GeneID 350383) | SID255365265 | -1.04 | migration z between -2 and 2; enough cells | 0.6 | 4883 | inactive
PRAM1 (GeneID 84106) | SID255361198 | 0.24 | migration z between -2 and 2; enough cells | 0.94 | 3676 | inactive
EIF1 (GeneID 10209) | SID255354897 | 0.39 | migration z between -2 and 2; enough cells | 0.88 | 5544 | inactive
RHOT1 (GeneID 55288) | SID255358571 | 0.06 | migration z between -2 and 2; enough cells | 0.9 | 6476 | inactive
CLEC1A (GeneID 51267) | SID255357602 | 2.1 | migration z above 2; enough cells | 1.21 | 5348 | active
ZNF322 (GeneID 79692) | SID255360392 | 0.02 | migration z between -2 and 2; enough cells | 0.89 | 4567 | inactive
H4C9 (GeneID 8294) | SID255353453 | -1.38 | migration z between -2 and 2; enough cells | 0.52 | 5232 | inactive
CCM2 (GeneID 83605) | SID255361038 | 0.46 | migration z between -2 and 2; enough cells | 1 | 6162 | inactive
ANO2 (GeneID 57101) | SID255359263 | 0.74 | migration z between -2 and 2; enough cells | 1.07 | 4755 | inactive
CHAF1B (GeneID 8208) | SID255353421 | -0.78 | migration z between -2 and 2; enough cells | 0.68 | 4120 | inactive
MEDAG (GeneID 84935) | SID255361590 | -0.18 | migration z between -2 and 2; enough cells | 0.84 | 5428 | inactive
ZNF16 (GeneID 7564) | SID255353191 | -1.18 | migration z between -2 and 2; enough cells | 0.58 | 5800 | inactive
SUV39H2 (GeneID 79723) | SID255360417 | -0.68 | migration z between -2 and 2; enough cells | 0.68 | 4495 | inactive
GMIP (GeneID 51291) | SID255357622 | 0.16 | migration z between -2 and 2; enough cells | 0.84 | 6262 | inactive
MMP17 (GeneID 4326) | SID255351004 | 0.65 | migration z between -2 and 2; enough cells | 0.93 | 5484 | inactive
NCSTN (GeneID 23385) | SID255356201 | -0.78 | migration z between -2 and 2; enough cells | 0.68 | 5984 | inactive
ADCY7 (GeneID 113) | SID255348183 | 0.26 | migration z between -2 and 2; enough cells | 0.86 | 4553 | inactive
SLC13A5 (GeneID 284111) | SID255364741 | -3.37 | migration z below -2; enough cells | 0.16 | 3906 | active
DSP (GeneID 1832) | SID255349383 | 0.8 | migration z between -2 and 2; enough cells | 1.09 | 5396 | inactive
NAGPA (GeneID 51172) | SID255357535 | -0.6 | migration z between -2 and 2; enough cells | 0.69 | 5638 | inactive
OSR2 (GeneID 116039) | SID255362341 | -1.17 | migration z between -2 and 2; enough cells | 0.58 | 5593 | inactive
AAR2 (GeneID 25980) | SID255356593 | 0.07 | migration z between -2 and 2; enough cells | 0.9 | 4888 | inactive
ZNF460 (GeneID 10794) | SID255355356 | -1.54 | migration z between -2 and 2; enough cells | 0.49 | 7076 | inactive
PALM (GeneID 5064) | SID255351412 | 0.55 | migration z between -2 and 2; enough cells | 1.02 | 6580 | inactive
GPR176 (GeneID 11245) | SID255355706 | 0.08 | migration z between -2 and 2; enough cells | 0.82 | 5889 | inactive
SIGLECL1 (GeneID 284369) | SID255364775 | 0.5 | migration z between -2 and 2; enough cells | 1.02 | 5696 | inactive
